PubChem BioAssay AID686938 – Drosophila RNAi Screening Center, 2013

- Assay: 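Looking for CRAC channel components and the factors controlling them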 (primary screen)
- Cells: Drosophila S2R+ cells
- Knock-down reagent: long dsRNA against Drosophila genes, about 0.25 µg dsRNA per well, roughly 10,000 cells
- Duration: 5 days of knock-down before the calcium assay
- Challenge: thapsigargin (SERCA pump blocker) to empty calcium stores; entry signal taken 4 min after adding it
- Detection: 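Duplicate raw fluo-4 intensities per well from a plate reader, at rest and four minutes after thapsigargin emptied calcium stores; entry-to-rest ratio filled for only some wells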
- Direction: calcium entry signal: higher = stronger calcium signal after store depletion; entry to resting ratio: higher = more calcium entry relative to resting level; resting calcium signal: higher = higher resting calcium signal
- Active means: 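Hit if the duplicate-averaged plate z-score for entry over resting signal is under −3; wells with weak total dye signal (Fmax z < −2) or more than 5 off-targets removed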
- Calls: active = strongly reduced calcium entry; inactive = no strong reduction
The deposit covers about 23,000 reagents; this is a random part of those with a known target gene and a result. Over the whole deposit, 75 (0.33%) are marked active. 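Raw plate signals without normalisation; calls rest on plate z-scores that were not deposited; ratio present for only 364 wells.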 Unmarked entries are inactive. The numbers tell different reagents against one gene apart. Names joined by + are all predicted targets of the reagent. Not given: the dose of the treatment.

{"gene knocked down":"CG14835","reagent no.":1,"calcium entry signal, replicate 1 (fluorescence units)":2.42e7,"calcium entry signal, replicate 2 (fluorescence units)":3.57e7,"resting calcium signal, replicate 1 (fluorescence units)":1.25e7,"resting calcium signal, replicate 2 (fluorescence units)":1.61e7}
{"gene knocked down":"CG14982","reagent no.":1,"calcium entry signal, replicate 1 (fluorescence units)":3.03e7,"calcium entry signal, replicate 2 (fluorescence units)":4.22e7,"resting calcium signal, replicate 1 (fluorescence units)":1.92e7,"resting calcium signal, replicate 2 (fluorescence units)":2.18e7}
{"gene knocked down":"CG14982","reagent no.":2,"calcium entry signal, replicate 1 (fluorescence units)":3.75e7,"calcium entry signal, replicate 2 (fluorescence units)":3.82e7,"resting calcium signal, replicate 1 (fluorescence units)":1.80e7,"resting calcium signal, replicate 2 (fluorescence units)":1.77e7}
{"gene knocked down":"CG7149","reagent no.":1,"calcium entry signal, replicate 1 (fluorescence units)":4.37e7,"resting calcium signal, replicate 1 (fluorescence units)":2.27e7}
{"gene knocked down":"CG8778","reagent no.":1,"calcium entry signal, replicate 1 (fluorescence units)":3.60e7,"calcium entry signal, replicate 2 (fluorescence units)":3.84e7,"resting calcium signal, replicate 1 (fluorescence units)":1.79e7,"resting calcium signal, replicate 2 (fluorescence units)":1.80e7}
{"gene knocked down":"dgt2 (dim gamma-tubulin 2)","reagent no.":1,"calcium entry signal, replicate 1 (fluorescence units)":2.28e7,"calcium entry signal, replicate 2 (fluorescence units)":1.57e7,"resting calcium signal, replicate 1 (fluorescence units)":1.20e7,"resting calcium signal, replicate 2 (fluorescence units)":8.80e6}
{"gene knocked down":"AGO3 (Argonaute 3)","reagent no.":1,"calcium entry signal, replicate 1 (fluorescence units)":3.71e7,"calcium entry signal, replicate 2 (fluorescence units)":3.41e7,"resting calcium signal, replicate 1 (fluorescence units)":2.08e7,"resting calcium signal, replicate 2 (fluorescence units)":1.68e7}

The list goes on; the last 2 above are carried over.
{"gene knocked down":"dgt2 (dim gamma-tubulin 2)","reagent no.":1,"calcium entry signal, replicate 1 (fluorescence units)":2.28e7,"calcium entry signal, replicate 2 (fluorescence units)":1.57e7,"resting calcium signal, replicate 1 (fluorescence units)":1.20e7,"resting calcium signal, replicate 2 (fluorescence units)":8.80e6}
{"gene knocked down":"AGO3 (Argonaute 3)","reagent no.":1,"calcium entry signal, replicate 1 (fluorescence units)":3.71e7,"calcium entry signal, replicate 2 (fluorescence units)":3.41e7,"resting calcium signal, replicate 1 (fluorescence units)":2.08e7,"resting calcium signal, replicate 2 (fluorescence units)":1.68e7}
{"gene knocked down":"Rab9Db + Rab9D + Rab9E","reagent no.":1,"calcium entry signal, replicate 1 (fluorescence units)":3.08e7,"calcium entry signal, replicate 2 (fluorescence units)":3.73e7,"resting calcium signal, replicate 1 (fluorescence units)":1.38e7,"resting calcium signal, replicate 2 (fluorescence units)":1.87e7}
{"gene knocked down":"CG16781","reagent no.":1,"calcium entry signal, replicate 1 (fluorescence units)":3.56e7,"calcium entry signal, replicate 2 (fluorescence units)":5.89e7,"entry to resting ratio":2.2,"resting calcium signal, replicate 1 (fluorescence units)":1.59e7,"resting calcium signal, replicate 2 (fluorescence units)":2.46e7}
{"gene knocked down":"CG12609","reagent no.":1,"calcium entry signal, replicate 1 (fluorescence units)":1.48e7,"calcium entry signal, replicate 2 (fluorescence units)":3.87e7,"resting calcium signal, replicate 1 (fluorescence units)":9.07e6,"resting calcium signal, replicate 2 (fluorescence units)":1.62e7}
{"gene knocked down":"eIF3g1 (eukaryotic translation initiation factor 3 subunit g1)","reagent no.":1,"calcium entry signal, replicate 1 (fluorescence units)":1.82e7,"calcium entry signal, replicate 2 (fluorescence units)":2.12e7,"resting calcium signal, replicate 1 (fluorescence units)":1.21e7,"resting calcium signal, replicate 2 (fluorescence units)":1.29e7}
{"gene knocked down":"MCTS1 (Malignant T cell amplified sequence 1)","reagent no.":1,"calcium entry signal, replicate 1 (fluorescence units)":3.61e7,"calcium entry signal, replicate 2 (fluorescence units)":3.10e7,"resting calcium signal, replicate 1 (fluorescence units)":1.63e7,"resting calcium signal, replicate 2 (fluorescence units)":1.48e7}
{"gene knocked down":"Acp53C14c (Accessory gland protein 53C14c)","reagent no.":1,"calcium entry signal, replicate 1 (fluorescence units)":2.59e7,"calcium entry signal, replicate 2 (fluorescence units)":5.21e7,"resting calcium signal, replicate 1 (fluorescence units)":1.33e7,"resting calcium signal, replicate 2 (fluorescence units)":2.40e7}
{"gene knocked down":"Phae1 (Phaedra 1)","reagent no.":1,"calcium entry signal, replicate 1 (fluorescence units)":3.44e7,"calcium entry signal, replicate 2 (fluorescence units)":2.65e7,"resting calcium signal, replicate 1 (fluorescence units)":1.54e7,"resting calcium signal, replicate 2 (fluorescence units)":1.27e7}
